Assay results reported in PMC12259948.
These are yes or no findings as the source states them, for the method shown. Binding seen in cells or lysates may run through a third protein. Some binding calls cover weakened binding; strength is not graded here.

Amino acid sequences for entries named in this document (tags omitted).
UniProt O15550: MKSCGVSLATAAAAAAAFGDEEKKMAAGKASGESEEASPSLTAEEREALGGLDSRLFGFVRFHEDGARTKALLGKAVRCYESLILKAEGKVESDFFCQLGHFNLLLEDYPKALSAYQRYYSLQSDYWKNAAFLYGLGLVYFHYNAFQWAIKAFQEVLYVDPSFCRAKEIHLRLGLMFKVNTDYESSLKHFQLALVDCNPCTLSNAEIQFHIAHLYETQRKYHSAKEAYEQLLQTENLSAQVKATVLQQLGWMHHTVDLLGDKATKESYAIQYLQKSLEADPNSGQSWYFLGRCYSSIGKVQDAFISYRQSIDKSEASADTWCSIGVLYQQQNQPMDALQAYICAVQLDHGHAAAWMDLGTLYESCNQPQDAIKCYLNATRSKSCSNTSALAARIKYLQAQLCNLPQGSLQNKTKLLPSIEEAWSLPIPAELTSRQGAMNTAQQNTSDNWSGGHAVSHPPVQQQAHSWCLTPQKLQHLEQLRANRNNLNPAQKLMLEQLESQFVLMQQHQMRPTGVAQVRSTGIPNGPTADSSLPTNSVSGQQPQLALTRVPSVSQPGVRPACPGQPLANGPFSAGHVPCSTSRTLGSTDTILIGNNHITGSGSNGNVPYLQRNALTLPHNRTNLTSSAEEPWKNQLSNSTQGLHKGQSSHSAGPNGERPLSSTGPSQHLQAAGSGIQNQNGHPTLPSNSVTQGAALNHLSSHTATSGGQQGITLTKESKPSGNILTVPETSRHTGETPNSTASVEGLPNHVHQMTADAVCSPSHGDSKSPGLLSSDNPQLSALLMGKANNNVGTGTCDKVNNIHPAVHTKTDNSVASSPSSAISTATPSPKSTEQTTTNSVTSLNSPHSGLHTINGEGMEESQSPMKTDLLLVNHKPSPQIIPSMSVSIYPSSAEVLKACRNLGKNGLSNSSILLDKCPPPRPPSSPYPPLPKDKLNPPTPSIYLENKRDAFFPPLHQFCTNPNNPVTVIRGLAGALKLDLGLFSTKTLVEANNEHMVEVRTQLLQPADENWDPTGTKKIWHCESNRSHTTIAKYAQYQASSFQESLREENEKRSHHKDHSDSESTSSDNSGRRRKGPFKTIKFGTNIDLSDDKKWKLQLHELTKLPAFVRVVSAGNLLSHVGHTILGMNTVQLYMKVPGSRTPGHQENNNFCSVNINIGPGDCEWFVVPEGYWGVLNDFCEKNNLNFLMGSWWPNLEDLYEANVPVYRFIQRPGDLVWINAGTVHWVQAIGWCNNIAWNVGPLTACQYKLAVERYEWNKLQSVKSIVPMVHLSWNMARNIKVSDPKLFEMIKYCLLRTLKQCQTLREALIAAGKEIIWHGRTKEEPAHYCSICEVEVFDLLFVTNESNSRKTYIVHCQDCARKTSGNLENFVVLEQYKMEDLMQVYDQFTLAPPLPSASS
UniProt Q96RN5: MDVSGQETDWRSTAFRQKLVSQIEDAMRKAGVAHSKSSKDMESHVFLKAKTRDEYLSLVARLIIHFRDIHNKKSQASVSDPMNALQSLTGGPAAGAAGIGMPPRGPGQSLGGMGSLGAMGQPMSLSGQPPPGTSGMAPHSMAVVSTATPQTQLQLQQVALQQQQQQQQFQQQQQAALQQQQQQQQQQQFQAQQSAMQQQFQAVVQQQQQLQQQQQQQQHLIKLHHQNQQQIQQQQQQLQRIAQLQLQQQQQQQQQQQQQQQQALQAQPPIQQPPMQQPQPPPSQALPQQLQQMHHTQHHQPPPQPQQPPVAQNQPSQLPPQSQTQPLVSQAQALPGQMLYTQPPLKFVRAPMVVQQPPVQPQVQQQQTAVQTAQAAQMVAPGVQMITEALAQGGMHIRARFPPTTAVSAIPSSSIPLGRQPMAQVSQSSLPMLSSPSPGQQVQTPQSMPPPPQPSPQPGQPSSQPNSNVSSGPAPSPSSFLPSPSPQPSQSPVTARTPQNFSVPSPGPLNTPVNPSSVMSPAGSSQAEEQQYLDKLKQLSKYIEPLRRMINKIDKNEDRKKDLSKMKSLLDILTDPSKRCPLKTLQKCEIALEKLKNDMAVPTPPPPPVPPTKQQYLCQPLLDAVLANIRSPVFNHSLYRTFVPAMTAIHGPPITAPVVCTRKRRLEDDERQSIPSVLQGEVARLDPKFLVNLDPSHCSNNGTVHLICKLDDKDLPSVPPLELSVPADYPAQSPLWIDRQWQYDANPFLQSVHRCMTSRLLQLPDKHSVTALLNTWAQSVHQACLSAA
UniProt Q09472: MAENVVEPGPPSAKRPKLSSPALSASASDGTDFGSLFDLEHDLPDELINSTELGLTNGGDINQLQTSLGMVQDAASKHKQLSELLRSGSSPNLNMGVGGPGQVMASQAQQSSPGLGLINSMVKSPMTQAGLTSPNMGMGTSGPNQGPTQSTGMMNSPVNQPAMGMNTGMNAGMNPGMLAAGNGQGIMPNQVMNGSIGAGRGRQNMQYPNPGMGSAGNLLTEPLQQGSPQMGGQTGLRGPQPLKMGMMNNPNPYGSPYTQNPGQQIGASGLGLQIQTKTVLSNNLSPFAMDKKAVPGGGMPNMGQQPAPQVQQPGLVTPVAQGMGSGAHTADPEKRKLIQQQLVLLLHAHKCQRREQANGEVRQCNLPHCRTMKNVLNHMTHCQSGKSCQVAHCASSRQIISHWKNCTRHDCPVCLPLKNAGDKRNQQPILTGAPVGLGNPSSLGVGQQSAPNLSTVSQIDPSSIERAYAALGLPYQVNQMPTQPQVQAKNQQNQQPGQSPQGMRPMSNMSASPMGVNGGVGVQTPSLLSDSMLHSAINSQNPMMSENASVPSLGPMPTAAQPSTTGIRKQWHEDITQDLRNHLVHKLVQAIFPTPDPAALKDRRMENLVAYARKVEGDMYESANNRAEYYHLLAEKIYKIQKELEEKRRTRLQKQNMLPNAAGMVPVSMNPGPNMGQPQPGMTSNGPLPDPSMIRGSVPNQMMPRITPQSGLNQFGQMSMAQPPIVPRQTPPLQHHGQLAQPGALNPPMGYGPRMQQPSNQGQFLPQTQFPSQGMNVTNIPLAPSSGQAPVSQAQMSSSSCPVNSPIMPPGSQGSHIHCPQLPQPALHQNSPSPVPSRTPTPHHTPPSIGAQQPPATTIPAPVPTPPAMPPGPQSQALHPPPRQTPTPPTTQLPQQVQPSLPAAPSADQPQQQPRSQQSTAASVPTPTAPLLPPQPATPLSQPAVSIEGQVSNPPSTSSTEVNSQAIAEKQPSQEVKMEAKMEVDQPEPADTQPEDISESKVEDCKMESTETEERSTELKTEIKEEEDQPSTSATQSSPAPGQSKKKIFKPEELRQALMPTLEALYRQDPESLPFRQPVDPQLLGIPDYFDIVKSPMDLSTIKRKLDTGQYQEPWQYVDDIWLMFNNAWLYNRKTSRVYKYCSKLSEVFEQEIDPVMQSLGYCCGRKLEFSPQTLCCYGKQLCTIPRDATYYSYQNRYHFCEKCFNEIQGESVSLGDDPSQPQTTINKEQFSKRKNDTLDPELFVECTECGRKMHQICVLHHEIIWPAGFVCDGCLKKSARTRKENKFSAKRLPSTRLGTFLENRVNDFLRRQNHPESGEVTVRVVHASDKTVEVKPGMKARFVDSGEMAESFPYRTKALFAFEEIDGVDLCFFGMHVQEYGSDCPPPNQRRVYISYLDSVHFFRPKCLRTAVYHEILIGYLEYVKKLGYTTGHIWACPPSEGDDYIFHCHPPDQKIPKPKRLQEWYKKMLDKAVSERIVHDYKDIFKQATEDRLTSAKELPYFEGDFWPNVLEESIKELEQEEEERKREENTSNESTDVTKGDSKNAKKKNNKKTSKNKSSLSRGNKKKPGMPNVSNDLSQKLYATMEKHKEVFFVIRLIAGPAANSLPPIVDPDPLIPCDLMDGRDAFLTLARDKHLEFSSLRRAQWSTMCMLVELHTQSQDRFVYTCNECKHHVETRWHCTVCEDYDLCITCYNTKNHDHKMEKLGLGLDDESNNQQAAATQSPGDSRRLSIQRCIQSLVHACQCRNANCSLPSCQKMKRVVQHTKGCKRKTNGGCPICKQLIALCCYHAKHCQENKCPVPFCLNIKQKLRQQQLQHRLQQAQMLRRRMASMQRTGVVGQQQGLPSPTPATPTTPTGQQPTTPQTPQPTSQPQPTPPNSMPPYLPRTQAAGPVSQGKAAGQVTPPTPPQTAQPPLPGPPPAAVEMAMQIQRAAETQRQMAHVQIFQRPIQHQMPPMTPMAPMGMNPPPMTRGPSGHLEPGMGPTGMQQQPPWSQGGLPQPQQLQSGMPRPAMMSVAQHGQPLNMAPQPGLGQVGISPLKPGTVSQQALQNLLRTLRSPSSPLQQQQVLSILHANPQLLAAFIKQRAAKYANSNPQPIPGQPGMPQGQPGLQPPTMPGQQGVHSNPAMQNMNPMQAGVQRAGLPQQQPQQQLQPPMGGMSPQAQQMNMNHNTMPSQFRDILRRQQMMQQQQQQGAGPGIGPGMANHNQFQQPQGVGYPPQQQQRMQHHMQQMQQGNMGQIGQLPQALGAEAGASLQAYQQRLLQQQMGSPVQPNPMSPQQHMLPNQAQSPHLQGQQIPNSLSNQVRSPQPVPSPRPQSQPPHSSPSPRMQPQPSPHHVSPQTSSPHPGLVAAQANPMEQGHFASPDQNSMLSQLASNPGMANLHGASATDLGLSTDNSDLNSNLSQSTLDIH

Molecular target: KDM6A (UniProt O15550)
Assay: co-IP; immunoprecipitation with pol II, Med1, KDM6A antibodies or nonspecific IgG, protocol of Cell Signaling Technology; SDS-PAGE, silver staining and western blotting; cells not named

Question: For Med15 (from UniProt Q96RN5 1-788), which binding is on record?
Answer: binds

Question: For p300 (from UniProt Q09472 1-2414), which binding is on record?
Answer: binds
